Structures can show the parent of a compound that is named as a salt. Where two headings read alike, the source gives them in different places.
How the values were obtained:
SARS-CoV-2 [1] = assay: microbe, parasite or virus in culture; conditions: Severe acute respiratory syndrome coronavirus 2, Vero C1008, 96 h
SARS-CoV-2 [2] = test system: SARS-CoV-2

In the case of `CCN(CC)CCOc1ccc(C(=C(Cl)c2ccccc2)c2ccccc2)cc1` [Clomiphene citrate], the IC50 (SARS-CoV-2 [1]) is reported as less than 20 µM, the IC50 (SARS-CoV-2 [2]) is reported as 13.6 µM and the “SI (CC50/IC50)” value (SARS-CoV-2 [2]) is reported as 2.42.

Reference: article PMC9279437, “Cytopathic SARS-CoV-2 screening on VERO-E6 cells in a large-scale repurposing effort” (Scientific Data, 2022)
